Laboratory results reported in the supplement of paper PMC10849652.
The other results are listed elsewhere or left out.

By UniProt entry, the sequences of proteins in these tests, tags left out. Where a name states a change or a piece, a line headed by the entry shows the natural chain unless it says otherwise.
UniProt Q92572: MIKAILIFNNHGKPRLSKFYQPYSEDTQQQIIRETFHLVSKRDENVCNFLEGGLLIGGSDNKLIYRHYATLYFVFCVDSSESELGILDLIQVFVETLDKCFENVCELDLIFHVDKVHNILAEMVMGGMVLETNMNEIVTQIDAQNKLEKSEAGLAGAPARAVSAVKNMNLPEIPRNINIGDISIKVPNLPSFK
UniProt Q9BQD7: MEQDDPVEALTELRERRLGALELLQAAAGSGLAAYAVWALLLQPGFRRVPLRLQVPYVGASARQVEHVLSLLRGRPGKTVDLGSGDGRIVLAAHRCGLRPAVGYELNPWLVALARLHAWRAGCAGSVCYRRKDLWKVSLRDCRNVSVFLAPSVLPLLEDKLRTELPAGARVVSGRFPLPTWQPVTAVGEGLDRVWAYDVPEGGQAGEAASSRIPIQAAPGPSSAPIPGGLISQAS
UniProt P07355, whole entry, looked up: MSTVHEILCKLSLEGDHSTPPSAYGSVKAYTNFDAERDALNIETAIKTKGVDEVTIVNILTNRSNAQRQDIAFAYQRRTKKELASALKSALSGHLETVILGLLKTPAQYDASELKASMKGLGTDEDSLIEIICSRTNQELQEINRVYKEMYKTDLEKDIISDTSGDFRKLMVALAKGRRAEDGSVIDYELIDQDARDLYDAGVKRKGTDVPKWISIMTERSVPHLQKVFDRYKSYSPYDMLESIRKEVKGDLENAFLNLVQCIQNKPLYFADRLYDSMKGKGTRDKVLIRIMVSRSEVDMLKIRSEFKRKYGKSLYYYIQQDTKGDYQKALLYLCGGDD
UniProt Q6NXT1: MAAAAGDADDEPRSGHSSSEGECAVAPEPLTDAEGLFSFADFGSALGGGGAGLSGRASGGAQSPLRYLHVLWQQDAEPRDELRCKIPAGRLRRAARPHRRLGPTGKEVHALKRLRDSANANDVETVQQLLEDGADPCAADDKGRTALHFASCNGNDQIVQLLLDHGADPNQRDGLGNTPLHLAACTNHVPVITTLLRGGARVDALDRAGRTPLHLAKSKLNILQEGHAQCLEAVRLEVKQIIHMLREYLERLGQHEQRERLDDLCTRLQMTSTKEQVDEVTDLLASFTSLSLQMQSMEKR
UniProt P48444: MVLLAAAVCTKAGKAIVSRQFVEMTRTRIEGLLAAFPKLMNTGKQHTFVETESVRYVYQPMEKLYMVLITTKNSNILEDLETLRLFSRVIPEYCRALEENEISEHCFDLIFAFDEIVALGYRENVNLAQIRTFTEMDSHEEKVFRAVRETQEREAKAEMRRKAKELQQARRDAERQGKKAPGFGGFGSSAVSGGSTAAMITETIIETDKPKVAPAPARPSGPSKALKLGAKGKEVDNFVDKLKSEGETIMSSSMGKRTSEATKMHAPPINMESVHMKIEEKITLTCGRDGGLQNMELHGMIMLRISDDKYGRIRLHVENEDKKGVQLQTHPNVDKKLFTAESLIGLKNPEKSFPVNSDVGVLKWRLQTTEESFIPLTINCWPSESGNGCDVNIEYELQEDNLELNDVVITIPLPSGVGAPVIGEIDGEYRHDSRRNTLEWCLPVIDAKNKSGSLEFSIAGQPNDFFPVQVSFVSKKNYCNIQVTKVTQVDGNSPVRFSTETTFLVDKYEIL
UniProt O75179: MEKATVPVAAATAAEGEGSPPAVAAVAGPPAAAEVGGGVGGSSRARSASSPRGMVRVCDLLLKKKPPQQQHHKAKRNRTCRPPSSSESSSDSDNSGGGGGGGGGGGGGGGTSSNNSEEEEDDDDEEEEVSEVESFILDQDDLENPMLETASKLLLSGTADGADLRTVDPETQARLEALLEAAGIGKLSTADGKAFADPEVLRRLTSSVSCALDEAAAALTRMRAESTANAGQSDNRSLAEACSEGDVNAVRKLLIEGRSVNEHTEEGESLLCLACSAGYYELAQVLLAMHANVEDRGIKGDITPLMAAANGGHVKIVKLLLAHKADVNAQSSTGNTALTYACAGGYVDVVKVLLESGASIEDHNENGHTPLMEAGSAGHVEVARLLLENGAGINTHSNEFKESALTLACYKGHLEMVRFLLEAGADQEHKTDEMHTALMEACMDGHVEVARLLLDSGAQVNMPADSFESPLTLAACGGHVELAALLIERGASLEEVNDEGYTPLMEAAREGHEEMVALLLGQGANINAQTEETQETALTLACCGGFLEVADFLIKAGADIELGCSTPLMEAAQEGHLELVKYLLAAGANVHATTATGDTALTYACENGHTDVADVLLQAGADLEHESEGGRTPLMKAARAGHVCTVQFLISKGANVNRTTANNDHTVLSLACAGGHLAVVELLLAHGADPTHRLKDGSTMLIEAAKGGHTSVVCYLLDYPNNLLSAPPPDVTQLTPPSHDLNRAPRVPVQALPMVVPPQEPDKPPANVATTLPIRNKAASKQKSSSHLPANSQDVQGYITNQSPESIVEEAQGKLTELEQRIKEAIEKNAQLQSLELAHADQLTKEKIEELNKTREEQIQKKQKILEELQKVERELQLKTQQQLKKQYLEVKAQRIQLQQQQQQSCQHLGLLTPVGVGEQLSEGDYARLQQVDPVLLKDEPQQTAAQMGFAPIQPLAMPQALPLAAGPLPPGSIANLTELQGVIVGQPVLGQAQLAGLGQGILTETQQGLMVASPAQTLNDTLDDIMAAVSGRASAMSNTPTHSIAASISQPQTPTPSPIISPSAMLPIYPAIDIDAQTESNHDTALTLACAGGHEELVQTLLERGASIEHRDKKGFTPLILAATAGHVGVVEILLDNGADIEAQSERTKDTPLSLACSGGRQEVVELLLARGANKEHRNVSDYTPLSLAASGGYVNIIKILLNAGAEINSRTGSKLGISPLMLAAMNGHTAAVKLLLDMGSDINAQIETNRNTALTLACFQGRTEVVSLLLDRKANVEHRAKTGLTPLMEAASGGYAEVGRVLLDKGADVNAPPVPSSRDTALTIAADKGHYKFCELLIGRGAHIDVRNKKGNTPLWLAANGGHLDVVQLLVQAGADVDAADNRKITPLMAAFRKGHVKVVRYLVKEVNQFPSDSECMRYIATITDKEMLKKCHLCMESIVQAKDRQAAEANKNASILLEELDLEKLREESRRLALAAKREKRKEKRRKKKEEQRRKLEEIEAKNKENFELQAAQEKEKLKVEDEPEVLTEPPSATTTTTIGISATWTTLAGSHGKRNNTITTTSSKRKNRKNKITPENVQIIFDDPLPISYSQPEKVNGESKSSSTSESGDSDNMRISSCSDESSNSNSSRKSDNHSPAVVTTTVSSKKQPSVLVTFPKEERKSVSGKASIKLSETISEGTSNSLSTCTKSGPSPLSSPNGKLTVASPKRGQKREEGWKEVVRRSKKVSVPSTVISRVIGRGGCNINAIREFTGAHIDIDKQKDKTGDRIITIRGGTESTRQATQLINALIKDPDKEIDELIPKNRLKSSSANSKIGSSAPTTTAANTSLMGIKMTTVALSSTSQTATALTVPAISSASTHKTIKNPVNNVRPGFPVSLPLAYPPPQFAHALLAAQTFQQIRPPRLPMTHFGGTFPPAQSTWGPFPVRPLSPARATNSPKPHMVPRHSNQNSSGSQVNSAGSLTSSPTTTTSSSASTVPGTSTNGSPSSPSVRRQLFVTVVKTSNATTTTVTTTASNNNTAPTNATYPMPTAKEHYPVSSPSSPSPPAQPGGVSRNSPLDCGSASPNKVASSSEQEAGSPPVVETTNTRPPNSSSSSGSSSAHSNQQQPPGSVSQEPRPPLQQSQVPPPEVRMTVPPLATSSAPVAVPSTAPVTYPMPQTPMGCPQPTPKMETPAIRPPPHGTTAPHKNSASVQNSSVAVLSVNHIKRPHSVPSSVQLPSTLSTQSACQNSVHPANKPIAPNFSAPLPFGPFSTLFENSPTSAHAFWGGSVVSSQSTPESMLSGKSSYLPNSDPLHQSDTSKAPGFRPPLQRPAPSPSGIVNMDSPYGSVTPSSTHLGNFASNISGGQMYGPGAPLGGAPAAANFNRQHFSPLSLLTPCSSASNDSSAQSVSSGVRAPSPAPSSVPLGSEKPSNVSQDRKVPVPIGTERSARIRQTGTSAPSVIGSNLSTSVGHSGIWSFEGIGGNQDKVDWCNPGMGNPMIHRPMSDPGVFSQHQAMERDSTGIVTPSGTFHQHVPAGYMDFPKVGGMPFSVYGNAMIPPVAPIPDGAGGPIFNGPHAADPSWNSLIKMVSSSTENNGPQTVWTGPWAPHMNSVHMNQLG
UniProt P56377: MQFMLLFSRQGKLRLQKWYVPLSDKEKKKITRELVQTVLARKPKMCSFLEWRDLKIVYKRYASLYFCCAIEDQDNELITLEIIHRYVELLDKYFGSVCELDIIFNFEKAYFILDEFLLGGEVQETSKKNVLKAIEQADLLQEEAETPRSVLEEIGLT
UniProt P78540: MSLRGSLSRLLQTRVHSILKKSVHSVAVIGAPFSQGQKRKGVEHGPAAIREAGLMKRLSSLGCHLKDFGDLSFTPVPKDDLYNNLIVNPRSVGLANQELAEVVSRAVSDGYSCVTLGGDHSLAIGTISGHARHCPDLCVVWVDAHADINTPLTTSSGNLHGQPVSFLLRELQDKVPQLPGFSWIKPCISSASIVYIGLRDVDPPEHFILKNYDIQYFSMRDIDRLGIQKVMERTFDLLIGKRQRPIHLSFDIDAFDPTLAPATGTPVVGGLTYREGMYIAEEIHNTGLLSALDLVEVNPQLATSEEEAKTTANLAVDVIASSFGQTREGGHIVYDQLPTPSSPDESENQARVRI
UniProt Q9H0R1: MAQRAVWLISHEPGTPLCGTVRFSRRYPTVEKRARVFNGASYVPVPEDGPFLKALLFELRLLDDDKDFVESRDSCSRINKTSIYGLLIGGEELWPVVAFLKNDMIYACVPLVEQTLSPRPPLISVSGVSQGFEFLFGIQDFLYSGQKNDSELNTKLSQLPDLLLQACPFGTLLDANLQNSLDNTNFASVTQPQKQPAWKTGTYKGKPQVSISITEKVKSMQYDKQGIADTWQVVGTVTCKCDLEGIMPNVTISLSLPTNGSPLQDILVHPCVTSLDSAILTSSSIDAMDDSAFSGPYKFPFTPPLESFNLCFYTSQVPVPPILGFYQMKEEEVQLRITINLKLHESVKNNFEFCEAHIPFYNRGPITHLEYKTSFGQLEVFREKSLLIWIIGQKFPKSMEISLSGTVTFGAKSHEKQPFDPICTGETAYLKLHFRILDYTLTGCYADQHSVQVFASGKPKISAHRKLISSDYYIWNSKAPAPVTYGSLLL
UniProt P09525: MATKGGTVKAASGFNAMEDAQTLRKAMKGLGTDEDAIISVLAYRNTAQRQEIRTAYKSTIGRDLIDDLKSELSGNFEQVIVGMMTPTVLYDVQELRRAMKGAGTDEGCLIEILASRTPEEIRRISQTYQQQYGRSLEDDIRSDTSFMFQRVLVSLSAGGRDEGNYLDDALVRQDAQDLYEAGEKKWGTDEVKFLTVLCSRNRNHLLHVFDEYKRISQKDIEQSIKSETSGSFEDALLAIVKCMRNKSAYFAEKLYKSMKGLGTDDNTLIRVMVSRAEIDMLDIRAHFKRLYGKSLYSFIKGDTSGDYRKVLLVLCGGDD
UniProt Q68EM7: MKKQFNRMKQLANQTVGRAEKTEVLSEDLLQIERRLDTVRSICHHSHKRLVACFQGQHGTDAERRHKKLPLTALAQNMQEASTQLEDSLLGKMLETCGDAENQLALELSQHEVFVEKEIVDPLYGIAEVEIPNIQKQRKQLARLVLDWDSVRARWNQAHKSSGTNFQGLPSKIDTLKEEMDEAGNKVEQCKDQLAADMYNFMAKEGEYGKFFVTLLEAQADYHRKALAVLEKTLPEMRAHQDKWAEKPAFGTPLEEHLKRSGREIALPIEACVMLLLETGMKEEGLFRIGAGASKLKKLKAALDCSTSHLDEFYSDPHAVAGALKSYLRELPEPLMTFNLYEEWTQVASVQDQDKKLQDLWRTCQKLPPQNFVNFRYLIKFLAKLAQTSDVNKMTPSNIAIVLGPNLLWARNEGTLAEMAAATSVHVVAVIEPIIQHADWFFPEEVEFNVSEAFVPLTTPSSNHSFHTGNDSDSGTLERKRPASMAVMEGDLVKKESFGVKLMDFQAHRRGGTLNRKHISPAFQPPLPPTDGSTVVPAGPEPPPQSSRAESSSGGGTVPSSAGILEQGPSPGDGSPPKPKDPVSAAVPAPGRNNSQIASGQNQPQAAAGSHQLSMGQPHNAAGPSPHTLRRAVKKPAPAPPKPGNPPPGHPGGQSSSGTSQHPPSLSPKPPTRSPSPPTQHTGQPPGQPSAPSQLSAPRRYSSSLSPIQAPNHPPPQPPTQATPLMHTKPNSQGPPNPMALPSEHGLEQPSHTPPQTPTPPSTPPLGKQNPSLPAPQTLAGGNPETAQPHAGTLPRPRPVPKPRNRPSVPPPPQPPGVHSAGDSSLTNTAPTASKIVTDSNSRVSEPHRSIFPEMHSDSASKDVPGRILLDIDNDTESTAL
UniProt P84077: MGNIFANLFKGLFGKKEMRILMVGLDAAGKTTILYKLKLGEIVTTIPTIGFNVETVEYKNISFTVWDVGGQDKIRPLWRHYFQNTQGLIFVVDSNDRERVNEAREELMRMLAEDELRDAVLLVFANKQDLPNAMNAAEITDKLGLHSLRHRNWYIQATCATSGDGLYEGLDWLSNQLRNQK

Columns and labels:
Assay in all cases: log2 fold change, soluble protein after heating vs DMSO (PISA); higher = thermal stabilisation; K562 cells, 10 uM, 30 min; active = over 0.2 and 3.5 SD of the protein, either way, in both replicates (recomputed)
[1] = compound: CS(=O)(=O)c1ccc(-c2cnc(N)c(C(=O)Nc3ccccc3)n2)cc1
Summary of the method: (§1)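 Thermal stability values are relative to control samples and come from duplicates. They are expressed as log2 fold changes. For measurement, K562 cells (2×10^6 cells/mL) received 10 μM compound for 30 min, and aliquots were heated for 3 min over 48°C-58°C, pooled, and extracted at 4°C in PBS with 0.5% NP-40. Soluble protein, the supernatant after 21,000xg for 90 min, was quantified by TMTpro 16plex LC-MS/MS with equalised channel sums.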

crizotinib = compound: C[C@@H](Oc1cc(-c2cnn(C3CCNCC3)c2)cnc1N)c1c(Cl)ccc(F)c1Cl [crizotinib]
Summary of the method: as §1

[2] = compound: C[C@@H]1COCCN1C2=NC(=NC(=C2)C3(CC3)S(=O)(=O)C)C4=C5C=CNC5=CC=C4
Summary of the method: as §1

[3] = compound: C[C@H](C1=CC=C(C=C1)C(=O)NC2=C3C=CNC3=NC=C2)N
Summary of the method: as §1

duvelisib = compound: C[C@H](Nc1ncnc2nc[nH]c12)c1cc2cccc(Cl)c2c(=O)n1-c1ccccc1 [duvelisib]
Summary of the method: as §1

gandotinib = compound: Cc1cc(Nc2cc(CN3CCOCC3)c3nc(C)c(Cc4ccc(Cl)cc4F)n3n2)n[nH]1 [gandotinib]
Summary of the method: as §1

tozasertib = compound: Cc1cc(Nc2cc(N3CCN(C)CC3)nc(Sc3ccc(NC(=O)C4CC4)cc3)n2)n[nH]1 [tozasertib]
Summary of the method: as §1

[4] = compound: Cc1cc(SCc2sc(-c3ccc(C(F)(F)F)cc3)nc2C)ccc1OCC(=O)O
Summary of the method: as §1

doramapimod = compound: Cc1ccc(-n2nc(C(C)(C)C)cc2NC(=O)Nc2ccc(OCCN3CCOCC3)c3ccccc23)cc1 [doramapimod]
Summary of the method: as §1

ispinesib = compound: Cc1ccc(C(=O)N(CCCN)[C@@H](c2nc3cc(Cl)ccc3c(=O)n2Cc2ccccc2)C(C)C)cc1 [ispinesib]
Summary of the method: as §1

Measured: log2 fold change

AP3S1 (UniProt Q92572)
inactive: [1] -0.001 | crizotinib -0.064 | [2] 0.031 | [3] 0.067 | duvelisib 0.023 | gandotinib -0.002 | tozasertib 0.01 | [4] 0.053 | doramapimod 0.001 | ispinesib -0.026

ANP32A (UniProt P39687)
inactive: [1] -0.005 | crizotinib 0.012 | [2] 0.081 | [3] -0.086 | duvelisib 0.016 | gandotinib -0.064 | tozasertib 0.018 | [4] -0.029 | doramapimod -0.051 | ispinesib 0.089

ANTKMT (UniProt Q9BQD7)
inactive: [1] 0.132 | crizotinib -0.28 | [2] 0.179 | [3] -0.052 | duvelisib -0.023 | gandotinib -0.208 | tozasertib 0.137 | [4] 0.07 | doramapimod -0.051 | ispinesib 0.137

APOC1 (UniProt P02654)
inactive: [1] -0.125 | crizotinib 0.1 | [2] 0.27 | [3] -0.059 | duvelisib 0.133 | gandotinib -0.142 | tozasertib 0.046 | [4] 0.009 | doramapimod 0.03 | ispinesib 0.187

AP1B1 (UniProt Q10567)
inactive: [1] 0.022 | crizotinib 0.011 | [2] 0.051 | [3] -0.041 | duvelisib 0.003 | gandotinib -0.057 | tozasertib 0.025 | [4] 0.019 | doramapimod -0.021 | ispinesib 0.006

ARAP1 (UniProt Q96P48)
inactive: [1] -0.038 | crizotinib -0.094 | [2] -0.013 | [3] 0.289 | duvelisib -0.156 | gandotinib -0.15 | tozasertib 0.303 | [4] 0.1 | doramapimod 0.142 | ispinesib -0.178

ANXA7 (UniProt P20073)
inactive: [1] 0.004 | crizotinib 0.008 | [2] 0.075 | [3] -0.088 | duvelisib 0.038 | gandotinib -0.062 | tozasertib 0.022 | [4] 0.007 | doramapimod -0.085 | ispinesib 0.14

ANXA2 isoform 2 (UniProt P07355)
inactive: [1] -0.043 | crizotinib -0.001 | [2] 0.048 | [3] -0.092 | duvelisib -0.006 | gandotinib -0.138 | tozasertib 0.016 | [4] 0.022 | doramapimod 0.001 | ispinesib 0.125

ANKRD54 (UniProt Q6NXT1)
inactive: [1] -0.001 | crizotinib 0.002 | [2] 0.08 | [3] -0.113 | duvelisib -0.127 | gandotinib -0.052 | tozasertib 0.017 | [4] 0.087 | doramapimod 0.024 | ispinesib 0.014

ARCN1 (UniProt P48444)
inactive: [1] -0.005 | crizotinib 0.054 | [2] 0.038 | [3] -0.014 | duvelisib 0.029 | gandotinib -0.09 | tozasertib 0.026 | [4] 0.006 | doramapimod -0.044 | ispinesib 0.086

ARFGAP3 (UniProt Q9NP61)
inactive: [1] 0.01 | crizotinib -0.03 | [2] 0.066 | [3] -0.01 | duvelisib 0.106 | gandotinib -0.032 | tozasertib -0.017 | [4] 0.035 | doramapimod 0.032 | ispinesib 0.16

ANK1 isoform 14 (UniProt P16157)
inactive: [1] 0.119 | crizotinib -0.093 | [2] -0.216 | [3] 0.428 | duvelisib -0.188 | gandotinib 0.108 | tozasertib 0.032 | [4] 0.04 | doramapimod 0.366 | ispinesib -0.297

ANXA11 (UniProt P50995)
inactive: [1] 0.005 | crizotinib 0.012 | [2] 0.091 | [3] -0.064 | duvelisib 0.019 | gandotinib -0.004 | tozasertib 0.007 | [4] 0.059 | doramapimod -0.061 | ispinesib 0.009

ANO10 (UniProt Q9NW15)
inactive: [1] 0.065 | crizotinib 0.041 | [2] 0.065 | [3] -0.109 | duvelisib 0.013 | gandotinib -0.061 | tozasertib 0.001 | [4] -0.031 | doramapimod -0.038 | ispinesib 0.155

ANKRD17 (UniProt O75179)
inactive: [1] 0.053 | crizotinib 0.046 | [2] -0.052 | [3] 0.166 | duvelisib 0.021 | gandotinib -0.037 | tozasertib 0.062 | [4] -0.07 | doramapimod 0.139 | ispinesib -0.213

AP1S2 (UniProt P56377)
inactive: [1] 0.035 | crizotinib -0.084 | [2] 0.17 | [3] -0.02 | duvelisib 0.051 | gandotinib -0.062 | [4] 0.227 | doramapimod 0.1

ARG2 (UniProt P78540)
inactive: [1] -0.001 | crizotinib 0.088 | [2] 0.036 | [3] 0.034 | duvelisib 0.038 | gandotinib -0.05 | tozasertib 0 | [4] -0.033 | doramapimod 0.032 | ispinesib -0.092

AP5M1 (UniProt Q9H0R1)
inactive: [1] 0.079 | crizotinib -0.036 | [2] -0.062 | [3] 0.101 | duvelisib -0.057 | gandotinib 0.057 | [4] 0.014 | doramapimod -0.073 | ispinesib -0.109

APOBEC3D (UniProt Q96AK3)
inactive: [1] -0.075 | crizotinib -0.194 | [2] -0.358 | [3] 0.196 | duvelisib -0.286 | tozasertib -0.022 | [4] -0.015 | doramapimod 0.074 | ispinesib -0.092

AP3B1 (UniProt O00203)
inactive: [1] 0.038 | crizotinib -0.071 | [2] -0.007 | [3] 0.051 | duvelisib 0.008 | gandotinib -0.059 | tozasertib -0.002 | [4] 0.075 | doramapimod -0.015 | ispinesib 0

APOA1 (UniProt P02647)
inactive: [1] 0.036 | crizotinib 0.211 | [2] 0.182 | [3] 0.296 | duvelisib 0.137 | gandotinib -0.069 | tozasertib 0.036 | [4] -0.13 | doramapimod -0.068 | ispinesib 0.075

ANXA4 (UniProt P09525)
inactive: [1] 0 | crizotinib -0.038 | [2] 0.075 | [3] 0.004 | duvelisib 0.017 | gandotinib -0.067 | tozasertib -0.013 | [4] 0.052 | doramapimod -0.06 | ispinesib 0.012

ARHGEF2 (UniProt Q92974)
inactive: [1] 0.099 | crizotinib -0.213 | [2] -0.423 | [3] 0.481 | duvelisib -0.12 | gandotinib 0.065 | tozasertib 0.084 | [4] 0.18 | doramapimod 0.41 | ispinesib -0.278

Nine successive records out of the list so far, for reference:
ANXA11 (UniProt P50995)
inactive: [1] 0.005 | crizotinib 0.012 | [2] 0.091 | [3] -0.064 | duvelisib 0.019 | gandotinib -0.004 | tozasertib 0.007 | [4] 0.059 | doramapimod -0.061 | ispinesib 0.009

ANO10 (UniProt Q9NW15)
inactive: [1] 0.065 | crizotinib 0.041 | [2] 0.065 | [3] -0.109 | duvelisib 0.013 | gandotinib -0.061 | tozasertib 0.001 | [4] -0.031 | doramapimod -0.038 | ispinesib 0.155

ANKRD17 (UniProt O75179)
inactive: [1] 0.053 | crizotinib 0.046 | [2] -0.052 | [3] 0.166 | duvelisib 0.021 | gandotinib -0.037 | tozasertib 0.062 | [4] -0.07 | doramapimod 0.139 | ispinesib -0.213

AP1S2 (UniProt P56377)
inactive: [1] 0.035 | crizotinib -0.084 | [2] 0.17 | [3] -0.02 | duvelisib 0.051 | gandotinib -0.062 | [4] 0.227 | doramapimod 0.1

ARG2 (UniProt P78540)
inactive: [1] -0.001 | crizotinib 0.088 | [2] 0.036 | [3] 0.034 | duvelisib 0.038 | gandotinib -0.05 | tozasertib 0 | [4] -0.033 | doramapimod 0.032 | ispinesib -0.092

AP5M1 (UniProt Q9H0R1)
inactive: [1] 0.079 | crizotinib -0.036 | [2] -0.062 | [3] 0.101 | duvelisib -0.057 | gandotinib 0.057 | [4] 0.014 | doramapimod -0.073 | ispinesib -0.109

APOBEC3D (UniProt Q96AK3)
inactive: [1] -0.075 | crizotinib -0.194 | [2] -0.358 | [3] 0.196 | duvelisib -0.286 | tozasertib -0.022 | [4] -0.015 | doramapimod 0.074 | ispinesib -0.092

AP3B1 (UniProt O00203)
inactive: [1] 0.038 | crizotinib -0.071 | [2] -0.007 | [3] 0.051 | duvelisib 0.008 | gandotinib -0.059 | tozasertib -0.002 | [4] 0.075 | doramapimod -0.015 | ispinesib 0

APOA1 (UniProt P02647)
inactive: [1] 0.036 | crizotinib 0.211 | [2] 0.182 | [3] 0.296 | duvelisib 0.137 | gandotinib -0.069 | tozasertib 0.036 | [4] -0.13 | doramapimod -0.068 | ispinesib 0.075

Carrying on:

ARHGAP18 (UniProt Q8N392)
inactive: [1] 0.074 | crizotinib -0.103 | [2] 0 | [3] 0.031 | duvelisib -0.013 | gandotinib -0.134 | tozasertib 0.103 | [4] 0.095 | doramapimod -0.054 | ispinesib -0.124

APOE (UniProt P02649)
inactive: [1] 0.057 | crizotinib 0.063 | [2] 0.035 | [3] 0.017 | duvelisib -0.009 | gandotinib 0.029 | tozasertib 0.02 | [4] 0.047 | doramapimod -0.054 | ispinesib 0.026

ARHGAP17 (UniProt Q68EM7)
inactive: [1] 0.059 | crizotinib -0.117 | [2] 0.06 | [3] 0.158 | duvelisib 0.009 | gandotinib 0.046 | tozasertib 0.177 | [4] 0.211 | doramapimod 0.08 | ispinesib -0.106

ARHGDIB (UniProt P52566)
inactive: [1] 0.004 | crizotinib 0.06 | [2] 0.091 | [3] -0.037 | duvelisib 0.066 | gandotinib 0.019 | tozasertib -0.105 | [4] -0.012 | doramapimod -0.029 | ispinesib 0.016

AP1M1 (UniProt Q9BXS5)
inactive: [1] 0.046 | crizotinib 0.006 | [2] 0.037 | [3] 0.031 | duvelisib -0.012 | gandotinib -0.095 | tozasertib 0.039 | [4] 0 | doramapimod 0.004 | ispinesib -0.002

ARF1 (UniProt P84077)
inactive: [1] 0.032 | crizotinib 0.096 | [2] 0.053 | [3] 0.073 | duvelisib -0.024 | tozasertib -0.112 | [4] 0.072 | doramapimod -0.083 | ispinesib 0.001

ANKHD1 isoform 6 (UniProt Q8IWZ3)
inactive: [1] 0.042 | crizotinib -0.086 | [2] -0.088 | [3] 0.248 | duvelisib -0.093 | gandotinib 0 | tozasertib 0.041 | [4] 0.199 | doramapimod 0.132 | ispinesib -0.145
